Test results from US12161763B2, “Formulation and method for increasing oral bioavailability of drugs” (Yissum Research Development Company of the Hebrew …, priority 2012, dated 2024).
For at least one compound, name, drawing or mass did not settle the structure.

Test: Absorption enhancer pro-nano-liposphere development: dissolution in pre-concentrate and precipitation on dilution with water
Format: physicochemical
Method: The development of each of the formulations, in terms of a selection of the different components, was conducted by the following method. A combination of certain components was used as a reference starting point (as per Table 16). The choice of these certain triglyceride, organic amphiphilic co-solvent and the combination of surfactants in the detailed portions in Table 16 was based on the inventors' previous experience with various lipophilic drugs. Thus, an absorption enhancer was added to this specified prototype formulation to form a pre-concentrate.

With O=C(/C=C/C=C/c1ccc2c(c1)OCO2)N1CCCCC1 [piperine, (E,E)1-[5-(1,3-benzodioxyl-5-yl)-1-oxo-2,4-pentadenyl] piperidine] as the compound, how does the “dissolution of the absorption enhancer in the pre-concentrate / appearance of pre-concentrate” value read?
The value was “homogeneous and visually clear pre-concentrate”.

What about the “precipitation of the absorption enhancer upon dilution with water phase” value (curcumin 1% and 2%, resveratrol, piperine 2%) of the same compound?
The value was “No precipitation”.
